The values below come from PMC6771250.

In this assay the target is T1, BCAP31, bait of the immune affinity purification for mass spectrometry (UniProt P51572).
T1 sequence: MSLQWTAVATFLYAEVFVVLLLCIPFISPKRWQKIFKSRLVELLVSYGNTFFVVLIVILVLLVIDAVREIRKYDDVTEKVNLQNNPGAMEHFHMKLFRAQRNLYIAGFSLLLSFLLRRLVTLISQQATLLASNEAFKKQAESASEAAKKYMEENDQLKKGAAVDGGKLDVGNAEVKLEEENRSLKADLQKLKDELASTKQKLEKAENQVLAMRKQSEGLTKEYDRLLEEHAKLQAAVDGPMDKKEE
In words: affinity purification with mass spectrometry; immune affinity purification of BCAP31; complex resolved on SDS-PAGE, silver stained, bands analysed by LC-MS/MS; search against Swiss-Prot (Homo sapiens), at least two unique peptides; cells not named.

These are yes or no findings as the source states them, for the method shown. In cells and extracts the contact can be indirect. A yes stands for co-enrichment or nearness to the bait. Other partners may have been found.

Regarding “RAB11 found with BCAP31 by mass spectrometry (human)”, the binding result was “binds”.
The result for “EGFR found with BCAP31 by mass spectrometry (from UniProt P00533 25-1210) (receptor)” reads “binds”.
